Measurements: the supplement of paper PMC11732987, “Enantioselective OTUD7B fragment discovery through chemoproteomics screening and high-throughput optimisation” (Communications Chemistry, 2025)
The list shows a part of the results. The data scatter; read single values as rough.

What follows are targets tested with ClCC(=O)N[C@@H]1CCCc2ccccc12 (assay: log2 mean competition ratio of IA-DTB cysteine labelling (DMSO/compound) (log2 ratio); higher = stronger cysteine engagement by compound). Conditions: 50 µM; treatment time: 4 h; cell line lysate: HEK293T.
Description: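 IA-DTB competitive cysteine chemoproteomics in HEK293T RIPA lysate. Lysates were treated with compound 29 or 30 at 50 or 200 µM for 4 h, then IA-DTB (500 µM, 1 h), trypsin-digested, NeutrAvidin-enriched and analysed by diaPASEF. Competition ratio = intensity DMSO / intensity compound (n=4 treated, n=64 DMSO); binding: mean log2 CR ≥ 1 and p ≤ 0.05 plus QC filters. Target is the cysteine site.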

| Target | log2 mean competition ratio |
| --- | --- |
| NDUFV1 C187 | 0.217 |
| NOSIP C185 (UniProt Q9Y314) | 0.0562 |
| NFATC1 C533 (UniProt O95644) | -0.304 |
| NELFA_(C131,C131,C141,C141) (UniProt Q9H3P2) | -0.0963 |
| NID1 C1135 | 0.0869 |
| NFX1 C661 (UniProt Q12986) | -0.193 |
| NCAPG C202 (UniProt Q9BPX3) | -0.0255 |
| NEIL2 C291 (UniProt Q969S2) | 0.267 |
| NEK6 C264 (UniProt Q9HC98) | -0.121 |
| NKTR C738 (UniProt P30414) | -0.134 |
| NLGN1 C784 | -0.115 |
| NOM1 C332 (UniProt Q5C9Z4) | -0.0791 |
| NNT C1073 (UniProt Q13423) | -0.122 |
| NCOA2 C22 (UniProt Q15596) | -0.204 |
| NIBAN2 C512 (UniProt Q96TA1) | -0.0689 |
| NDUFAF4 C87 (UniProt Q9P032) | -0.0745 |
| NEK6 C40 (UniProt Q9HC98) | -0.0813 |
| NFATC4 C350 (UniProt Q14934) | -0.129 |
| NIPBL C2374 (UniProt Q6KC79) | 0.496 |
| NDUFAF6 C216 (UniProt Q330K2) | 0.214 |

Same assay, conditions: 200 µM; treatment time: 4 h; cell line lysate: HEK293T

| Target | log2 mean competition ratio |
| --- | --- |
| NDUFV1 C187 | 0.0536 |
| NOSIP C185 (UniProt Q9Y314) | -0.0327 |
| NFATC1 C533 (UniProt O95644) | -0.63 |
| NELFA_(C131,C131,C141,C141) (UniProt Q9H3P2) | 0.611 |
| NID1 C1135 | 0.00528 |
| NFX1 C661 (UniProt Q12986) | 0.0283 |
| NCAPG C202 (UniProt Q9BPX3) | 0.152 |
| NEIL2 C291 (UniProt Q969S2) | 0.167 |
| NEK6 C264 (UniProt Q9HC98) | 0.287 |
| NKTR C738 (UniProt P30414) | 0.118 |
| NLGN1 C784 | 0.241 |
| NOM1 C332 (UniProt Q5C9Z4) | -0.0595 |
| NNT C1073 (UniProt Q13423) | -0.215 |
| NCOA2 C22 (UniProt Q15596) | -0.196 |
| NIBAN2 C512 (UniProt Q96TA1) | 0.17 |
| NDUFAF4 C87 (UniProt Q9P032) | -0.0954 |
| NEK6 C40 (UniProt Q9HC98) | 0.373 |
| NFATC4 C350 (UniProt Q14934) | -0.339 |
| NIPBL C2374 (UniProt Q6KC79) | 0.224 |
| NDUFAF6 C216 (UniProt Q330K2) | -0.213 |
